# Drug screen on melanoma cell lines: apoptosis marker

From a melanoma drug combination screen (doi:10.1371/journal.pone.0140310); values rounded.

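Human melanoma cells were exposed to a pair of drugs for 72 h in 1,536-well plates and read by automated microscopy after fixing and staining. Values are the share of nuclei positive for cleaved PARP as a percentage of the same share in the DMSO control: 100 is the control level, higher means more apoptosis. Every drug was used at one fixed concentration, the higher of two screened. These are primary screening values without error estimates. The marker varies much from line to line, for technical or biological reasons.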 An unselected part of the screen is shown.

First drug in all entries: FK866, 50 nM, O=C(/C=C/c1cccnc1)NCCCCC1CCN(C(=O)c2ccccc2)CC1

Drugs:
SNS-032 (50 nM): CC(C)(C)c1cnc(CSc2cnc(NC(=O)C3CCNCC3)s2)o1
STA-4783 (30 nM): CN(NC(=O)CC(=O)NN(C)C(=S)c1ccccc1)C(=S)c1ccccc1
decitabine (500 nM): Nc1ncn([C@H]2C[C@H](O)[C@@H](CO)O2)c(=O)n1
PD173074 (500 nM): CCN(CC)CCCCNc1ncc2cc(-c3cc(OC)cc(OC)c3)c(NC(=O)NC(C)(C)C)nc2n1
selumetinib (75 nM): Cn1cnc2c(F)c(Nc3ccc(Br)cc3Cl)c(C(=O)NOCCO)cc21
dasatinib (20 nM): Cc1nc(Nc2ncc(C(=O)Nc3c(C)cccc3Cl)s2)cc(N2CCN(CCO)CC2)n1
lapatinib (4000 nM): CS(=O)(=O)CCNCc1ccc(-c2ccc3ncnc(Nc4ccc(OCc5cccc(F)c5)c(Cl)c4)c3c2)o1
vincristine (0.5 nM): CC[C@]1(O)C[C@H]2CN(CCc3c([nH]c4ccccc34)[C@@](C(=O)OC)(c3cc4c(cc3OC)N(C=O)[C@H]3[C@@](O)(C(=O)OC)[C@H](OC(C)=O)[C@]5(CC)C=CCN6CC[C@]43[C@@H]65)C2)C1
GW0742 (10000 nM): Cc1cc(SCc2sc(-c3ccc(C(F)(F)F)c(F)c3)nc2C)ccc1OCC(=O)O
vatalanib (10000 nM): Clc1ccc(Nc2nnc(Cc3ccncc3)c3ccccc23)cc1
PLX4720 (400 nM): CCCS(=O)(=O)Nc1ccc(F)c(C(=O)c2c[nH]c3ncc(Cl)cc23)c1F
midostaurin (400 nM): CO[C@@H]1[C@H](N(C)C(=O)c2ccccc2)C[C@H]2O[C@]1(C)n1c3ccccc3c3c4c(c5c6ccccc6n2c5c31)C(=O)NC4
crizotinib (1000 nM): C[C@@H](Oc1cc(-c2cnn(C3CCNCC3)c2)cnc1N)c1c(Cl)ccc(F)c1Cl
ZM336372 (10000 nM): Cc1ccc(NC(=O)c2cccc(N(C)C)c2)cc1NC(=O)c1ccc(O)cc1
BI-78D3 (1000 nM): O=c1[nH]nc(Sc2ncc([N+](=O)[O-])s2)n1-c1ccc2c(c1)OCCO2
JZL184 (5000 nM): O=C(Oc1ccc([N+](=O)[O-])cc1)N1CCC(C(O)(c2ccc3c(c2)OCO3)c2ccc3c(c2)OCO3)CC1
VX-702 (2000 nM): NC(=O)c1ccc(N(C(N)=O)c2c(F)cccc2F)nc1-c1ccc(F)cc1F
PF-562271 (400 nM): CN(c1ncccc1CNc1nc(Nc2ccc3c(c2)CC(=O)N3)ncc1C(F)(F)F)S(C)(=O)=O
tozasertib (30 nM): Cc1cc(Nc2cc(N3CCN(C)CC3)nc(Sc3ccc(NC(=O)C4CC4)cc3)n2)n[nH]1
erlotinib (4000 nM): C#Cc1cccc(Nc2ncnc3cc(OCCOC)c(OCCOC)cc23)c1
BMS-536924 (1000 nM): Cc1cc(N2CCOCC2)cc2[nH]c(-c3c(NC[C@@H](O)c4cccc(Cl)c4)cc[nH]c3=O)nc12
bexarotene (10000 nM): C=C(c1ccc(C(=O)O)cc1)c1cc2c(cc1C)C(C)(C)CCC2(C)C
nutlin-3 (500 nM): COc1ccc(C2=N[C@@H](c3ccc(Cl)cc3)[C@@H](c3ccc(Cl)cc3)N2C(=O)N2CCNC(=O)C2)c(OC(C)C)c1
XAV939 (10000 nM): Oc1nc(-c2ccc(C(F)(F)F)cc2)nc2c1CSCC2
KU-0063794 (100 nM): COc1ccc(-c2ccc3c(N4CCOCC4)nc(N4C[C@@H](C)O[C@@H](C)C4)nc3n2)cc1CO
vorinostat (400 nM): O=C(CCCCCCC(=O)Nc1ccccc1)NO
CP-690550 (5000 nM): C[C@@H]1CCN(C(=O)CC#N)C[C@@H]1N(C)c1ncnc2[nH]ccc12
FH535 (5000 nM): Cc1cc([N+](=O)[O-])ccc1NS(=O)(=O)c1cc(Cl)ccc1Cl
vismodegib (5000 nM): CS(=O)(=O)c1ccc(C(=O)Nc2ccc(Cl)c(-c3ccccn3)c2)c(Cl)c1
AZD7762 (100 nM): NC(=O)Nc1cc(-c2cccc(F)c2)sc1C(=O)N[C@H]1CCCNC1
ENMD-2076 (200 nM): Cc1cc(Nc2cc(N3CCN(C)CC3)nc(/C=C/c3ccccc3)n2)n[nH]1
GW441756 (2000 nM): Cn1cc(/C=C2\C(=O)Nc3cccnc32)c2ccccc21
LFM-A13 (10000 nM): C/C(O)=C(\C#N)C(=O)Nc1cc(Br)ccc1Br
OSU-03012 (5000 nM): NCC(=O)Nc1ccc(-n2nc(C(F)(F)F)cc2-c2ccc3c(ccc4ccccc43)c2)cc1
cisplatin (8000 nM): N.N.[Cl][Pt][Cl]
MK-2206 (2000 nM): NC1(c2ccc(-c3nc4ccn5c(=O)[nH]nc5c4cc3-c3ccccc3)cc2)CCC1

Partner,UACC-257,SK-MEL-28,LOX IMVI,A101D,SK-MEL-30
erlotinib,25.1,169,181,70.5,30.8
STA-4783,118,296,118,128,126
vismodegib,67.5,68.2,70.3,77.1,84.3
MK-2206,44.7,307,44.0,88.0,71.2
vorinostat,64.7,284,27.7,68.9,181
AZD7762,43.7,230,152,60.6,137
ENMD-2076,42.0,123,42.9,93.0,177
decitabine,73.3,74.6,42.9,166,122
PD173074,48.0,78.5,125,223,158
XAV939,55.3,154,96.7,119,152
OSU-03012,86.5,313,47.1,56.9,849
dasatinib,26.6,147,576,238,129
midostaurin,45.9,82.8,119,192,154
vatalanib,97.4,151,82.0,161,212
LFM-A13,160,56.8,90.5,90.5,89.0
cisplatin,353,133,243,84.0,137
FH535,231,155,84.0,64.6,55.0
tozasertib,38.0,245,61.2,91.0,99.9
VX-702,116,44.3,42.7,125,102
selumetinib,33.6,171,149,97.9,220
BMS-536924,35.6,82.2,94.0,120,145
vincristine,26.7,117,144,113,519
BI-78D3,29.3,76.3,168,94.3,109
lapatinib,143,74.5,86.3,71.4,102
GW441756,45.0,50.3,18.0,123,55.3
crizotinib,16.9,136,40.9,82.5,107
PLX4720,25.3,75.0,112,103,173
CP-690550,41.2,172,308,138,104
SNS-032,100,74.7,30.5,36.7,185
GW0742,28.5,53.7,88.0,93.9,149
KU-0063794,30.7,99.9,64.1,71.6,153
nutlin-3,63.1,107,24.6,351,258
bexarotene,44.5,123,140,146,133
PF-562271,134,189,39.4,66.2,92.7
ZM336372,126,140,66.5,99.1,39.9
JZL184,30.7,55.3,62.2,80.5,81.6

Repeated from the top, 5 entries:

* erlotinib | UACC-257: 25.1; SK-MEL-28: 169; LOX IMVI: 181; A101D: 70.5; SK-MEL-30: 30.8
* STA-4783 | UACC-257: 118; SK-MEL-28: 296; LOX IMVI: 118; A101D: 128; SK-MEL-30: 126
* vismodegib | UACC-257: 67.5; SK-MEL-28: 68.2; LOX IMVI: 70.3; A101D: 77.1; SK-MEL-30: 84.3
* MK-2206 | UACC-257: 44.7; SK-MEL-28: 307; LOX IMVI: 44.0; A101D: 88.0; SK-MEL-30: 71.2
* vorinostat | UACC-257: 64.7; SK-MEL-28: 284; LOX IMVI: 27.7; A101D: 68.9; SK-MEL-30: 181